Results reported in the supplement of paper PMC7877785.
± gives the uncertainty stated by the source. Many entries were measured with a wide error.

Experiment: self-splicing fitness, log relative to wild type (ln ratio); higher = more splicing; Tetrahymena group I intron in knt gene, E. coli kanamycin selection, DiMSum; sequences stand for … in CUCUCU…GGAGGGAAAAGUUAUCAGGCAUGCACCUGGUAGCUAGUCUUUAAACCAAUAGAUUGCAUCGGUUUAAAAGGCAAGACCGUCAAAUUGCGGGAAAGGGGUCAACAGCCGUUCAGUACCAAGUCUCAGGGGAAACUUUGAGAUGGCCUUGCAAAGGGUAUGGUAAUAAGCUGACGGACAUGGUCCUAACCACGCAGCCAAGUCCUAAGUCAACAGAUCUUCUGUUGAUAUGGAUGCAGUUCACAGACUAAAUGUCGGUCGGGGAAGAUGUAUUCUUCUCAUAAGAUAUAGUCGGACCUCUCCUUAAUGGGAGCUAGCGGAUGAAGUGAUGCAACACUGGAGCCGCUGGGAACUAAUUUGUAUGCGAAAGUAUAUUGAUUAGUUUUGGAGUACUCGUGGUCG
Method in brief: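 Colonies from six replicate transformations of E. coli BL21(DE3) were pooled and amplicon-sequenced on an Illumina HiSeq 2500. The library placed an intron with all eight P1ex-region nucleotides randomised inside the knt kanamycin-resistance gene on pET-22b(+), and cells grew overnight at 37°C or 30°C on LB agar with or without 25 μg/mL kanamycin (plus 100 μg/mL carbenicillin, 50 μM IPTG, 0.2% rhamnose). Fitness is the DiMSum error-weighted combination of wild-type-normalised replicate fold changes, kanamycin versus none.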

Sequence | self-splicing fitness (ln) (30 °C) | self-splicing fitness (ln) (37 °C)
UUUUAGCAAUAUUACGCCCC | -0.995 ± 1.2 | -0.44 ± 1.4
UCGGAGCAAUAUUACGUCCG | -3.21 ± 1.1 | -2.13 ± 0.81
AAGGAGCAAUAUUACGGUAA | -2.71 ± 0.64 | -2.5 ± 0.63
GCGUAGCAAUAUUACGGGAG | -3.65 ± 0.52 | 
UCAUAGCAAUAUUACGGACC | -3.96 ± 1 | -2.23 ± 1.1
AGGGAGCAAUAUUACGUCGG | -3.52 ± 0.58 | 
UUGGAGCAAUAUUACGCCGU | -3.82 ± 1 | -0.699 ± 0.61
CGAGAGCAAUAUUACGACCA |  | -1.12 ± 0.54
GGCCAGCAAUAUUACGGGCC | -2.79 ± 0.53 | -2.18 ± 1.1
CGCGAGCAAUAUUACGAACC | -2.79 ± 0.68 | 
AGGGAGCAAUAUUACGUUGA | -3.48 ± 0.53 | 
AGGGAGCAAUAUUACGCGAC |  | -2.79 ± 1.1
UGGUAGCAAUAUUACGGACC |  | -1.79 ± 1.2
AUUGAGCAAUAUUACGCUCA | -2.93 ± 0.78 | 
CGGGAGCAAUAUUACGCCAA | -2.21 ± 1.1 | -1.42 ± 0.59
GAAAAGCAAUAUUACGUGCU | -1.8 ± 0.098 | -0.978 ± 0.1
AACCAGCAAUAUUACGUUUC | -4.08 ± 0.17 | -2.92 ± 0.21
UUCGAGCAAUAUUACGAGUA | -1.57 ± 0.15 | -1.43 ± 0.18
UGCGAGCAAUAUUACGCCUU | -1.84 ± 0.68 | 
CCGGAGCAAUAUUACGCCGU |  | -1.82 ± 0.52
GGCGAGCAAUAUUACGCGCU | -0.358 ± 0.57 | 
CGUUAGCAAUAUUACGCCAU | -4.26 ± 1 | 
UGAUAGCAAUAUUACGCUCC | -2.59 ± 0.64 | 
UAAUAGCAAUAUUACGAAAU | -3.27 ± 0.62 | 

Sequence | self-splicing fitness (ln) (30 °C) | self-splicing fitness (ln) (37 °C)
CUAGAGCAAUAUUACGUAUC | -4.44 ± 0.73 | 
GGUCAGCAAUAUUACGUCCC | -3.15 ± 0.68 | -2.44 ± 0.56
CCGGAGCAAUAUUACGGGCC | -3.57 ± 0.74 | 
UUUAAGCAAUAUUACGAGCC |  | -2.56 ± 0.54
AGGCAGCAAUAUUACGUCCC | -0.81 ± 0.54 | 
UCCUAGCAAUAUUACGAGCC | -2.67 ± 0.61 | -1.84 ± 0.56
UAUAAGCAAUAUUACGCAAA | -2.79 ± 0.58 | -2.13 ± 0.5
UCAAAGCAAUAUUACGAAAC |  | -2.46 ± 0.54
CUUAAGCAAUAUUACGCUCC | -3.01 ± 0.57 | -2.37 ± 0.64
GGGGAGCAAUAUUACGAAUC |  | 1.62 ± 0.74
UUUGAGCAAUAUUACGUUAC | 0.271 ± 0.82 | -2.83 ± 0.54
CGGCAGCAAUAUUACGCCCG |  | -1.4 ± 0.9
GCUGAGCAAUAUUACGAAGG | -3.74 ± 0.6 | 
UCGCAGCAAUAUUACGAGUC | -2.65 ± 0.5 | 
GUCCAGCAAUAUUACGUGAA | 0.0486 ± 0.079 | 0.617 ± 0.098
UUUGAGCAAUAUUACGUCCA | -2.33 ± 0.78 | 
GUAUAGCAAUAUUACGGGAA | -3.01 ± 0.56 | 
UCUUAGCAAUAUUACGGCAA | -2.96 ± 0.53 | 
UCAGAGCAAUAUUACGAUUC | -4.48 ± 0.51 | 
UAAGAGCAAUAUUACGGACC | -2.25 ± 1.1 | -1.13 ± 1.2
AACUAGCAAUAUUACGACCC | -1.13 ± 0.51 | 
CUCCAGCAAUAUUACGACCU |  | -3.23 ± 0.73
CUCGAGCAAUAUUACGUAAC |  | -1.84 ± 1.1
CCGGAGCAAUAUUACGCAUC |  | -1.37 ± 0.68

Sequence | self-splicing fitness (ln) (30 °C) | self-splicing fitness (ln) (37 °C)
ACCGAGCAAUAUUACGUUCU | -2.38 ± 0.074 | -1.01 ± 0.074
GCUGAGCAAUAUUACGUGCC |  | -2.24 ± 0.64
GUGUAGCAAUAUUACGGAAC | -2.86 ± 0.62 | -1.18 ± 0.92
GCCGAGCAAUAUUACGGCUC | -3.39 ± 1 | 
CUGGAGCAAUAUUACGUUUU | -4.3 ± 0.72 | 
AACGAGCAAUAUUACGCAAA | -2.87 ± 1.1 | 
CCUUAGCAAUAUUACGCCUG | -4.11 ± 0.51 | 
CUCCAGCAAUAUUACGCCAA | -2.65 ± 0.54 | 
CCGUAGCAAUAUUACGAUCU | -3.23 ± 0.53 | 
UUGUAGCAAUAUUACGUUGC |  | -2.29 ± 0.46
AUUGAGCAAUAUUACGCCCG |  | -2.22 ± 0.63
ACUCAGCAAUAUUACGCGGG | -2.91 ± 0.15 | -2.68 ± 0.18
CACAAGCAAUAUUACGCCGG | -0.875 ± 0.081 | -0.35 ± 0.095
AUUAAGCAAUAUUACGCGUC | -2.77 ± 0.3 | -2.19 ± 0.38
UUUAAGCAAUAUUACGCCCC | -2.58 ± 0.8 | -0.269 ± 0.65
ACGGAGCAAUAUUACGCGAU | -4.44 ± 0.72 | 
CGUGAGCAAUAUUACGGCCG |  | -0.484 ± 0.66
UGCAAGCAAUAUUACGCCGC | -4.18 ± 0.72 | -2.1 ± 0.64
ACUCAGCAAUAUUACGGUUU | -0.62 ± 0.048 | -0.291 ± 0.057
GGUGAGCAAUAUUACGAGAA | -3.13 ± 1 | 
UUCCAGCAAUAUUACGGGGA | -4.8 ± 0.59 | 
UUAGAGCAAUAUUACGCAUC | -3.26 ± 0.74 | -1.52 ± 0.56
GGGGAGCAAUAUUACGGAAU | -3.58 ± 0.54 | 
CUUAAGCAAUAUUACGGCUA |  | -3.35 ± 0.6

Not a retest: entries from further up.
Sequence | self-splicing fitness (ln) (30 °C) | self-splicing fitness (ln) (37 °C)
GUGUAGCAAUAUUACGGAAC | -2.86 ± 0.62 | -1.18 ± 0.92
GCCGAGCAAUAUUACGGCUC | -3.39 ± 1 | 
CUGGAGCAAUAUUACGUUUU | -4.3 ± 0.72 | 
AACGAGCAAUAUUACGCAAA | -2.87 ± 1.1 | 
CCUUAGCAAUAUUACGCCUG | -4.11 ± 0.51 | 
CUCCAGCAAUAUUACGCCAA | -2.65 ± 0.54 | 
CCGUAGCAAUAUUACGAUCU | -3.23 ± 0.53 | 
UUGUAGCAAUAUUACGUUGC |  | -2.29 ± 0.46
AUUGAGCAAUAUUACGCCCG |  | -2.22 ± 0.63
ACUCAGCAAUAUUACGCGGG | -2.91 ± 0.15 | -2.68 ± 0.18
CACAAGCAAUAUUACGCCGG | -0.875 ± 0.081 | -0.35 ± 0.095
AUUAAGCAAUAUUACGCGUC | -2.77 ± 0.3 | -2.19 ± 0.38
UUUAAGCAAUAUUACGCCCC | -2.58 ± 0.8 | -0.269 ± 0.65
ACGGAGCAAUAUUACGCGAU | -4.44 ± 0.72 | 
CGUGAGCAAUAUUACGGCCG |  | -0.484 ± 0.66
UGCAAGCAAUAUUACGCCGC | -4.18 ± 0.72 | -2.1 ± 0.64
ACUCAGCAAUAUUACGGUUU | -0.62 ± 0.048 | -0.291 ± 0.057
GGUGAGCAAUAUUACGAGAA | -3.13 ± 1 | 
UUCCAGCAAUAUUACGGGGA | -4.8 ± 0.59 | 
UUAGAGCAAUAUUACGCAUC | -3.26 ± 0.74 | -1.52 ± 0.56
GGGGAGCAAUAUUACGGAAU | -3.58 ± 0.54 | 

(next part)

Sequence | self-splicing fitness (ln) (30 °C) | self-splicing fitness (ln) (37 °C)
UAUUAGCAAUAUUACGCGGC | -2.65 ± 0.76 | 
GACGAGCAAUAUUACGGAUU | -4.02 ± 0.51 | 
GAGGAGCAAUAUUACGAGGA | -2.33 ± 0.84 | 
GGAUAGCAAUAUUACGCCGU | -1.74 ± 0.25 | -0.441 ± 0.2
CGGUAGCAAUAUUACGUGGU | -3.17 ± 0.21 | -2.3 ± 0.21
CUGGAGCAAUAUUACGAAGA | -3.31 ± 1 | -0.969 ± 0.77
CGAAAGCAAUAUUACGUGGG | -2.3 ± 0.098 | -2.46 ± 0.14
CAGAAGCAAUAUUACGAAAA | -4.31 ± 0.46 | -2.65 ± 0.21
CGAGAGCAAUAUUACGCCGA |  | -1.16 ± 0.74
GUCAAGCAAUAUUACGGCCA | -4.07 ± 0.72 | -2.24 ± 0.55
UUCGAGCAAUAUUACGCUUC | -4.4 ± 1 | -2.55 ± 0.62
GCACAGCAAUAUUACGGGUC | -3.81 ± 0.17 | -1.62 ± 0.097
UGUUAGCAAUAUUACGGGGU |  | -3.49 ± 0.52
CCGAAGCAAUAUUACGUGCA |  | -2.15 ± 0.5
AUUGAGCAAUAUUACGCACG |  | -2.39 ± 1.1
CAAGAGCAAUAUUACGAAAU | -4.31 ± 1 | -2.79 ± 0.65
GUAUAGCAAUAUUACGCGGC | -2.01 ± 0.57 | -2 ± 0.52
AAAAAGCAAUAUUACGCUUU | -4.64 ± 0.27 | -2.32 ± 0.19
UAAGAGCAAUAUUACGCCAC | -2.07 ± 0.22 | -1.59 ± 0.29
UGGGAGCAAUAUUACGUCAA | -3.27 ± 0.63 | -3.03 ± 0.53
UAACAGCAAUAUUACGCCGC | -3.08 ± 0.64 | -3.25 ± 1
UAGAAGCAAUAUUACGAGGU | -5.34 ± 0.71 | 
CUCCAGCAAUAUUACGGCUG | -2.12 ± 0.22 | -2.99 ± 0.4
